In the supplement of paper PMC10849652:
The list shows a part of the results.

Amino acid sequences for entries named in this document (tags omitted). A change or cut given only in a name is not applied to a line headed by its entry.
UniProt Q96AT1: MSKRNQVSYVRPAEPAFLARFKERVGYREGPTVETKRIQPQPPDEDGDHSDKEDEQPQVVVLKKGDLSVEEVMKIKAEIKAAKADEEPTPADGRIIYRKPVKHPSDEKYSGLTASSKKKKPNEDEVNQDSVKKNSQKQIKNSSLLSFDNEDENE
UniProt Q07866: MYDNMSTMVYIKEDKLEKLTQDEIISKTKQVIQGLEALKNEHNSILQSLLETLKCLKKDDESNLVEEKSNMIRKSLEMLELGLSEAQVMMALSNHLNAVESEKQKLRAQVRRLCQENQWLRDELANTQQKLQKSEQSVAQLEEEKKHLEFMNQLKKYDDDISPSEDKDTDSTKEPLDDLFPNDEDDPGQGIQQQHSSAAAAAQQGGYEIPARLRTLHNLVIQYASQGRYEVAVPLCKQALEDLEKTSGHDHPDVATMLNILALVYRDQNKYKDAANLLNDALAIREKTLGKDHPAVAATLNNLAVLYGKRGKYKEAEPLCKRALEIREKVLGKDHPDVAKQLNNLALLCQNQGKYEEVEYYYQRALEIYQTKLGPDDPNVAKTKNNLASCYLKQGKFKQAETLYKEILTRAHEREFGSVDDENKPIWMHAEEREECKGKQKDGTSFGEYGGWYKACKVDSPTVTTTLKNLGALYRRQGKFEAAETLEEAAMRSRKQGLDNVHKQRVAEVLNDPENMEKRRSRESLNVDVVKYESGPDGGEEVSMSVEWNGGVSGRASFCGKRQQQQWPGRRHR
UniProt Q9Y6Y0: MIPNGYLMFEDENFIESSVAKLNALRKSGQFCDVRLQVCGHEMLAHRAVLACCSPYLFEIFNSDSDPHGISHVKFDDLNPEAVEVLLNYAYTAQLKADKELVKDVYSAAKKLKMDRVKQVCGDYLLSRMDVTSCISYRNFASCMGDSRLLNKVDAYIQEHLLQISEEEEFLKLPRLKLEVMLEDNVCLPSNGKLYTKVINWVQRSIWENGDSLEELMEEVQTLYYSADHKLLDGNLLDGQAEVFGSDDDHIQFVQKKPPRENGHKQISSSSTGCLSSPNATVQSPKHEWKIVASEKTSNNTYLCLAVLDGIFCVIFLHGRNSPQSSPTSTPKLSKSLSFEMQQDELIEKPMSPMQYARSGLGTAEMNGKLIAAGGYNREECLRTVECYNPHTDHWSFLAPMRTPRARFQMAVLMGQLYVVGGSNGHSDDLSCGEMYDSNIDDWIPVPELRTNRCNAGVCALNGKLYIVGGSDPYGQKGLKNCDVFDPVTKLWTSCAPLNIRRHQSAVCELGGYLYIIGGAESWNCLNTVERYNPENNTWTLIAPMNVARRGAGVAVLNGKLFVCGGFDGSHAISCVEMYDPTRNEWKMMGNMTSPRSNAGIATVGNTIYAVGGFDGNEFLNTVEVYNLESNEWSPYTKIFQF
UniProt Q9Y448: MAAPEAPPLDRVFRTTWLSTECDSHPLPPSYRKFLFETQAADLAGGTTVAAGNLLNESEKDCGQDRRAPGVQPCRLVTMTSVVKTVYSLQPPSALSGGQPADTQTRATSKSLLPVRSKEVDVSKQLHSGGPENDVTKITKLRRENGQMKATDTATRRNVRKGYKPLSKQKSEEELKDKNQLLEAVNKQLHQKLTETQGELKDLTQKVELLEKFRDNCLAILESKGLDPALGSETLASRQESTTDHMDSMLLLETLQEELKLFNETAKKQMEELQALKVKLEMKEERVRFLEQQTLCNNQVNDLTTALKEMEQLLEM
UniProt Q8IVT5: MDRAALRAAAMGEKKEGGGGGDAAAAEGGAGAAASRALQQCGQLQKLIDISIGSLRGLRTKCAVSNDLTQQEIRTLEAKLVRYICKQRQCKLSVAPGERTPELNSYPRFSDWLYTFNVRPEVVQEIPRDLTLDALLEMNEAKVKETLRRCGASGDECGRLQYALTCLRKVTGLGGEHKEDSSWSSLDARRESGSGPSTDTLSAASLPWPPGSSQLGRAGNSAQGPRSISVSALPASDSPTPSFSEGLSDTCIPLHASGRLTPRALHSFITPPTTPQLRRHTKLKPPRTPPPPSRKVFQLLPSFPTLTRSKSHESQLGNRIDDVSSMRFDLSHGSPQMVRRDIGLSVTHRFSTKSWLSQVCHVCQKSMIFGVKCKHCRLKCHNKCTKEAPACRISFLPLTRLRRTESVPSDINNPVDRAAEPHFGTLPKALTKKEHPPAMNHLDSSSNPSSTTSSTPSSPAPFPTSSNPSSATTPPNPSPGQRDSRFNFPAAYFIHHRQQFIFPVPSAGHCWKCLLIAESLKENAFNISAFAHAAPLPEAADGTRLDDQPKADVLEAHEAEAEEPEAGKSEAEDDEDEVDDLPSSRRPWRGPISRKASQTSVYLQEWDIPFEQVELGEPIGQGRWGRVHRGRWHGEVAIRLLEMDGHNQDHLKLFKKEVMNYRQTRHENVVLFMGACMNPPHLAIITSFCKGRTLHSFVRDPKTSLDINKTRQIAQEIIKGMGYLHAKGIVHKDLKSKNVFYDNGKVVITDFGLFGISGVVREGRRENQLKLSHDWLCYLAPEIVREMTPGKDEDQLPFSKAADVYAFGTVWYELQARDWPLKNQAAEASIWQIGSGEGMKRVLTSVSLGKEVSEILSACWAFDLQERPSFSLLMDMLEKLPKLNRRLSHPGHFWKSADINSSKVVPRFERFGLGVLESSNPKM
UniProt Q9H910: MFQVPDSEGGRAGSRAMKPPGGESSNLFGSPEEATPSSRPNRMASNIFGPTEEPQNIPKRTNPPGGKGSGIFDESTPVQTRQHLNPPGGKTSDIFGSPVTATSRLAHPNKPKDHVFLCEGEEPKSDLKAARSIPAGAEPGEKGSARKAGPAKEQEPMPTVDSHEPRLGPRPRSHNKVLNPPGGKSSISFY
UniProt Q12840: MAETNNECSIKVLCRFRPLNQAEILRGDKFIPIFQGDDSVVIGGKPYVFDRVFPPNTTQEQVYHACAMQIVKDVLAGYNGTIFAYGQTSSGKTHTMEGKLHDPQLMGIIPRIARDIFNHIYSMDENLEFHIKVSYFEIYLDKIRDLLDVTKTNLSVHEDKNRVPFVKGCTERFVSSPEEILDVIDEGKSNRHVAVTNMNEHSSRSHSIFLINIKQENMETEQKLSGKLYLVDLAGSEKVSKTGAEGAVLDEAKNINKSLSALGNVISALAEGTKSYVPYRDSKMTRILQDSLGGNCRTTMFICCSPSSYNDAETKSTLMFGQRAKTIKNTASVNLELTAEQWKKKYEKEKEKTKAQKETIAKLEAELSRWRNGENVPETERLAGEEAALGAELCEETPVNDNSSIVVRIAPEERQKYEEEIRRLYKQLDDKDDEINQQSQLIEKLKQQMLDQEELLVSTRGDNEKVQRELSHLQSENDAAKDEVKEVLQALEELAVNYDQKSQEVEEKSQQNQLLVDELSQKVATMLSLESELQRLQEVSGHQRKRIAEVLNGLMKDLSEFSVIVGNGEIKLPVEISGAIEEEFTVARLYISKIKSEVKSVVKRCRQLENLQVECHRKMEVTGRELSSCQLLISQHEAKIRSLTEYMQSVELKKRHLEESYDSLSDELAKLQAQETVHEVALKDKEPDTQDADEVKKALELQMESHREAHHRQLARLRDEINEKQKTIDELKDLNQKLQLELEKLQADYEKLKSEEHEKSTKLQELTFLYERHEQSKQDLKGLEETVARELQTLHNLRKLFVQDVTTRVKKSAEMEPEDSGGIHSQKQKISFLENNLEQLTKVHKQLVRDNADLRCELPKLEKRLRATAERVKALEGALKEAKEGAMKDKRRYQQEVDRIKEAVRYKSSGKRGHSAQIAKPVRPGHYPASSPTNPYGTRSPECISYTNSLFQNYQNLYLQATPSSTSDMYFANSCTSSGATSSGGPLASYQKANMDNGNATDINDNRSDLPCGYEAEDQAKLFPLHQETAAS
UniProt P23276: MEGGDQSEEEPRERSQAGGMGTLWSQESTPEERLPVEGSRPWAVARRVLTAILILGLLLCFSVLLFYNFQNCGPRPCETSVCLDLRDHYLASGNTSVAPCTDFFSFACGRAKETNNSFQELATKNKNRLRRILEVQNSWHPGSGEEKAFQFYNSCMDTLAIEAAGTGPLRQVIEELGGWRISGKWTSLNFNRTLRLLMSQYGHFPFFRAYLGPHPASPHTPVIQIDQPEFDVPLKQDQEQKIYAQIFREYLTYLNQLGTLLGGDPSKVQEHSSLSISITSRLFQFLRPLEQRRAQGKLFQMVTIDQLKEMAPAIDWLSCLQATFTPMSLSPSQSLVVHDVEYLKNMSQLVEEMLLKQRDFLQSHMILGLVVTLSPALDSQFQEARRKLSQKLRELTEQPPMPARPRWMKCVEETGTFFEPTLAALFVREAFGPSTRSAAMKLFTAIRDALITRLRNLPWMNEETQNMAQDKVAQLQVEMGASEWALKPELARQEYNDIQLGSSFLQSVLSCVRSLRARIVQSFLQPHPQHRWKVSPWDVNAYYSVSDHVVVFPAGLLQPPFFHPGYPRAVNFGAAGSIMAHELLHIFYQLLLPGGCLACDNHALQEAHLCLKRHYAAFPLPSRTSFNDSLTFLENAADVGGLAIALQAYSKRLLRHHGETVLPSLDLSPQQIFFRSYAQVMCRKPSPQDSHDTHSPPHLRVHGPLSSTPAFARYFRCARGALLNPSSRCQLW
UniProt Q96A73: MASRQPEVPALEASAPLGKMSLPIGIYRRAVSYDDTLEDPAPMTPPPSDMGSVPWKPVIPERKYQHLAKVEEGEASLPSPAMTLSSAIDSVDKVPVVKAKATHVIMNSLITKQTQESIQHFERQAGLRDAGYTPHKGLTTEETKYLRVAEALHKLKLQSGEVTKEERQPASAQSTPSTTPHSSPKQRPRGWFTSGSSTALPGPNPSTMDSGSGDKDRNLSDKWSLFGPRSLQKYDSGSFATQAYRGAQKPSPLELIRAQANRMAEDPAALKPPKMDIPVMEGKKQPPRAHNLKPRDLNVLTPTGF
UniProt P41229: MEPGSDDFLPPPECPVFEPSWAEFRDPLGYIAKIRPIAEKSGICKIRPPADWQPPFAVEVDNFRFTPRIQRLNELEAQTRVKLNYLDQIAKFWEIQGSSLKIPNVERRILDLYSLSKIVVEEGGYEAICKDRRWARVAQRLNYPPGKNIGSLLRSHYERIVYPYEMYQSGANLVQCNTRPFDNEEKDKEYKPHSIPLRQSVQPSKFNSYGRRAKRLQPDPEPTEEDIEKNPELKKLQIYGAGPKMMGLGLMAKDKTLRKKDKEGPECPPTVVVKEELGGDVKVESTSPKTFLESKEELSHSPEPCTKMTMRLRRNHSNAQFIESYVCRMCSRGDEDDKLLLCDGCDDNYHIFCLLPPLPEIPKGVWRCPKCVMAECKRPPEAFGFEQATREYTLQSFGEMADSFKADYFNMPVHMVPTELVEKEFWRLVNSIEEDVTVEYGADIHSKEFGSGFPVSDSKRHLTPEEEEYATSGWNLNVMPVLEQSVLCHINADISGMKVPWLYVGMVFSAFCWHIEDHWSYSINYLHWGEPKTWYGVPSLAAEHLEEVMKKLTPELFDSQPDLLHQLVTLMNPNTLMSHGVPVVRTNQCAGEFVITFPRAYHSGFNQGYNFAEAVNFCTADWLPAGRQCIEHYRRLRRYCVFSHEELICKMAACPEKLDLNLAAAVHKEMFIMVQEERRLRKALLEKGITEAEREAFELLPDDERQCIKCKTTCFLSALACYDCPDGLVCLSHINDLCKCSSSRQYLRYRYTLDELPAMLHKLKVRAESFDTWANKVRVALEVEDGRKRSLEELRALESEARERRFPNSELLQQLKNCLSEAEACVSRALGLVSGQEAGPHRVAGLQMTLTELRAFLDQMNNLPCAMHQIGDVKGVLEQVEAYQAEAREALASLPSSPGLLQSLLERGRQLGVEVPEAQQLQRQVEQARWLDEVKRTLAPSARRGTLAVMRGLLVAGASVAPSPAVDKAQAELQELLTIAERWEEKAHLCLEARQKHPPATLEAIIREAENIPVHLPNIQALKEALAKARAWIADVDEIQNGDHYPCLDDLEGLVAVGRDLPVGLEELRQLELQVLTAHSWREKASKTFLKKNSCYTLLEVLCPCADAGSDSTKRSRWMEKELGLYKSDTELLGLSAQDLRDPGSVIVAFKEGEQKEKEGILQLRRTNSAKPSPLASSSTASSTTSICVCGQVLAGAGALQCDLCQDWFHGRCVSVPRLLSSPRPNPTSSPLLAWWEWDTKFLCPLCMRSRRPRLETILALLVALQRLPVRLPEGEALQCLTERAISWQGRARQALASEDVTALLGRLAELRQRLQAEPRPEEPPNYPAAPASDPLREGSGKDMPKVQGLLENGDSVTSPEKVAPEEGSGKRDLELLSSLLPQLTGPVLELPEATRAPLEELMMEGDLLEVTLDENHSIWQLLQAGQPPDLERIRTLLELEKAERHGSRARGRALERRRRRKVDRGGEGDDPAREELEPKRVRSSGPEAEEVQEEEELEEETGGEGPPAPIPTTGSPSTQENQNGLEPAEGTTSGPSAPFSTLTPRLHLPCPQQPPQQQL

These targets were tested with C1=CC=C(C=C1)C2=NC(=C(N2)C3=CC=NC=C3)C4=CC(=C(C=C4)Cl)O (assay: log2 fold change, soluble protein after heating vs DMSO (PISA); higher = thermal stabilisation; K562 cells, 10 uM, 30 min; active = over 0.2 and 3.5 SD of the protein, either way, in both replicates (recomputed)).
How it was run: (§1)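 Quantification of soluble protein used TMTpro 16plex LC-MS/MS, with channel sums equalised. Samples were the supernatant after 21,000xg for 90 min of pooled aliquots from K562 cells (2×10^6 cells/mL) treated with 10 μM compound for 30 min, heated for 3 min over 48°C-58°C, and extracted in PBS with 0.5% NP-40 at 4°C. Values, from duplicates, describe thermal stability against control samples on a log2 fold-change scale.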

log2 fold change, inactive:
KIAA1143 (UniProt Q96AT1) 0.026, KLC2 (UniProt Q9H0B6) -0.039, KDM8 isoform 3 (UniProt Q8N371) 0.012, KPNA2 (UniProt P52292) -0.008, KMT2D isoform 3 (UniProt O14686) 0.003, KATNB1 (UniProt Q9BVA0) -0.059, KIF13A (UniProt Q9H1H9) -0.027, KHDRBS1 (UniProt Q07666) 0.027, KHSRP (UniProt Q92945) -0.068, KPNB1 (UniProt Q14974) -0.049, KNTC1 (UniProt P50748) -0.065, KIAA0100 (UniProt Q14667) 0.044, KLHL11 (UniProt Q9NVR0) 0.05, JAGN1 (UniProt Q8N5M9) 0.041, KLC1 isoform 6 (UniProt Q07866) -0.019, IVNS1ABP (UniProt Q9Y6Y0) 0.052, KNSTRN (UniProt Q9Y448) -0.049, KIF1B isoform 4 (UniProt O60333) -0.092, KARS1 (UniProt Q15046) -0.069, KDM1A isoform 2 (UniProt O60341) 0.059, KCTD5 (UniProt Q9NXV2) 0.043, KPNA1 (UniProt P52294) 0.035, KBTBD2 (UniProt Q8IY47) -0.002, KIF3A (UniProt Q9Y496) -0.062, KSR1 (UniProt Q8IVT5) 0.185, KIAA1522 isoform 2 (UniProt Q9P206) 0.008, JPT2 isoform 3 (UniProt Q9H910) -0.001, KIAA0319L (UniProt Q8IZA0) 0.035, KDM5D isoform 3 (UniProt Q9BY66) -0.005, JMJD6 isoform 3 (UniProt Q6NYC1) 0.107, JUNB (UniProt P17275) -0.419, KBTBD4 isoform 2 (UniProt Q9NVX7) -0.003, KIF5A (UniProt Q12840) 0.022, KEL (UniProt P23276) -0.029, KIAA1191 (UniProt Q96A73) 0.003, JUND (UniProt P17535) -0.098, KIF2C (UniProt Q99661) 0.043, KDM5C (UniProt P41229) -0.087, KIAA2013 isoform 2 (UniProt Q8IYS2) -0.015, KATNA1 (UniProt O75449) -0.021

These targets were tested with C1=CC=C2C(=C1)C3=NNC4=CC=CC(=C43)C2=O in the same assay as above.
How it was run: as §1

log2 fold change, inactive:
KIAA1143 (UniProt Q96AT1) -0.137, KLC2 (UniProt Q9H0B6) 0.006, KDM8 isoform 3 (UniProt Q8N371) 0.017, KPNA2 (UniProt P52292) -0.026, KMT2D isoform 3 (UniProt O14686) -0.004, KATNB1 (UniProt Q9BVA0) 0.032, KIF13A (UniProt Q9H1H9) -0.055, KHDRBS1 (UniProt Q07666) 0.014, KHSRP (UniProt Q92945) 0.005, KPNB1 (UniProt Q14974) -0.016, KNTC1 (UniProt P50748) -0.012, KIAA0100 (UniProt Q14667) 0.013, KLHL11 (UniProt Q9NVR0) -0.187, JAGN1 (UniProt Q8N5M9) 0.028, KLC1 isoform 6 (UniProt Q07866) 0.001, IVNS1ABP (UniProt Q9Y6Y0) 0.291, KNSTRN (UniProt Q9Y448) -0.08, KIF1B isoform 4 (UniProt O60333) 0.078, KARS1 (UniProt Q15046) -0.026, KDM1A isoform 2 (UniProt O60341) -0.026, KCTD5 (UniProt Q9NXV2) -0.14, KPNA1 (UniProt P52294) -0.061, KBTBD2 (UniProt Q8IY47) 0.019, KIF3A (UniProt Q9Y496) -0.025, KSR1 (UniProt Q8IVT5) -0.106, KIAA1522 isoform 2 (UniProt Q9P206) -0.105, JPT2 isoform 3 (UniProt Q9H910) 0.032, KIAA0319L (UniProt Q8IZA0) -0.049, KDM5D isoform 3 (UniProt Q9BY66) 0.026, JMJD6 isoform 3 (UniProt Q6NYC1) -0.037, JUNB (UniProt P17275) -0.161, KBTBD4 isoform 2 (UniProt Q9NVX7) 0.133, KIF5A (UniProt Q12840) 0.012, KEL (UniProt P23276) -0.067, KIAA1191 (UniProt Q96A73) -0.011, JUND (UniProt P17535) 0.001, KIF2C (UniProt Q99661) 0.019, KDM5C (UniProt P41229) 0.13, KIAA2013 isoform 2 (UniProt Q8IYS2) 0.018, KATNA1 (UniProt O75449) 0.027
